Some of the results follow.
Compound: Cc1cc(ccc1-c1ccccc1)C(=O)N1CCCN(CC1)C(=O)CCl [compound 10]
Assay: probe-labelled cysteine peptide fold change vs DMSO (competition) (log2 fold change); higher = less target engagement (more negative = stronger competition)
Conditions: 50 µM; THP-1; incubation time: 4 h
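Further: competitive profiling in live THP-1 cells: cysteine peptides tagged with an iodoacetamide desthiobiotin (IA-DTB) probe, intensity after compound treatment relative to DMSO-treated cells.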

The chains behind the UniProt entries cited, without tags or fusion partners. Where a name states a change or a piece, a line headed by the entry shows the natural chain unless it says otherwise.
UniProt Q9P2J5: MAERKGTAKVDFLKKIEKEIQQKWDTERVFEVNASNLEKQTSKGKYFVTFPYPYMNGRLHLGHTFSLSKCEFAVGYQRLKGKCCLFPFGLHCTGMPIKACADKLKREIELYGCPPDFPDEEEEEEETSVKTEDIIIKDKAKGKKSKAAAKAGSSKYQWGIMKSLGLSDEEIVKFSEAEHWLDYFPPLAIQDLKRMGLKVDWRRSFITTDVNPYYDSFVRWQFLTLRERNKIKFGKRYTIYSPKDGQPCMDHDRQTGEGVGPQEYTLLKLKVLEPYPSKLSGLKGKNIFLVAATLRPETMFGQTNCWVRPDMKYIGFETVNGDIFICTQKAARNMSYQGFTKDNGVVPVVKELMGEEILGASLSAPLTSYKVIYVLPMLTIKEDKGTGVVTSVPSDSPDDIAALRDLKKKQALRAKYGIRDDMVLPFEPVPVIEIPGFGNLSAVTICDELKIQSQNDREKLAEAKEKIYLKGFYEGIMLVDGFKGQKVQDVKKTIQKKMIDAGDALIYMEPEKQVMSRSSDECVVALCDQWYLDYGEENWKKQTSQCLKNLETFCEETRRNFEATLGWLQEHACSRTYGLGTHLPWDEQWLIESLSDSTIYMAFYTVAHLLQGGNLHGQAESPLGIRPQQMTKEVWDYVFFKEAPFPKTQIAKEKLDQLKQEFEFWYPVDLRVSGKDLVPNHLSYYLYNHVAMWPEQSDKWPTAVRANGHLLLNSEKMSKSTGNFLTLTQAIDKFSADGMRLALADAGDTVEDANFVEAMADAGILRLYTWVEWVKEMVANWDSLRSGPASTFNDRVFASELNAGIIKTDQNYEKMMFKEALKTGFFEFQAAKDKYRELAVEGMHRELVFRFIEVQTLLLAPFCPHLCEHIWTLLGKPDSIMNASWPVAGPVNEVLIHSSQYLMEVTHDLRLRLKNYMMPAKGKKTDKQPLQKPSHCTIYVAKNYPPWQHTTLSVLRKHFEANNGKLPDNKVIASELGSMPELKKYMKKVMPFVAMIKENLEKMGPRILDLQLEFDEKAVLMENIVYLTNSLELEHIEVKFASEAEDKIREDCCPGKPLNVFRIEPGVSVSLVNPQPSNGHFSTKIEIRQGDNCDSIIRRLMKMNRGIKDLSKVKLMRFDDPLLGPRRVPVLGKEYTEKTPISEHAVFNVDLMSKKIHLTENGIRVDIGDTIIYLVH
UniProt O00139: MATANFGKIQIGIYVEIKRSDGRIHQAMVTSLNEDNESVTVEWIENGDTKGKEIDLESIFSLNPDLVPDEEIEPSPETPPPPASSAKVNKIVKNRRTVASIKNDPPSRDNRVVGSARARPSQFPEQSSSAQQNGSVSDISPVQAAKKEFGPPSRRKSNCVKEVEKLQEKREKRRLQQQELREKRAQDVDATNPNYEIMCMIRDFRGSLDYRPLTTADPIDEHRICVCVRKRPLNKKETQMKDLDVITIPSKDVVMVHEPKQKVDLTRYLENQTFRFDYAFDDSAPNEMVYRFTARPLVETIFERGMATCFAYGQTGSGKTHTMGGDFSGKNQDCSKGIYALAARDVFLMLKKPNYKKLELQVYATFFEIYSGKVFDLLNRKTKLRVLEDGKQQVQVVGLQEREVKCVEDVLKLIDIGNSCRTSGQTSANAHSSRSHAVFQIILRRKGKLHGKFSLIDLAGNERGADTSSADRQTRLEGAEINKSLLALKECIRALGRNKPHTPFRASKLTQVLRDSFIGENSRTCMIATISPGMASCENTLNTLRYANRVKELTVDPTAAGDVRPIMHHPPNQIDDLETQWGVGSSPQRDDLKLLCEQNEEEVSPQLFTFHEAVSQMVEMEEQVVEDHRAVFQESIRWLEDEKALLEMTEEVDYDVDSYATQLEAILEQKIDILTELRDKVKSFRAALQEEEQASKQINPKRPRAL
UniProt P13796: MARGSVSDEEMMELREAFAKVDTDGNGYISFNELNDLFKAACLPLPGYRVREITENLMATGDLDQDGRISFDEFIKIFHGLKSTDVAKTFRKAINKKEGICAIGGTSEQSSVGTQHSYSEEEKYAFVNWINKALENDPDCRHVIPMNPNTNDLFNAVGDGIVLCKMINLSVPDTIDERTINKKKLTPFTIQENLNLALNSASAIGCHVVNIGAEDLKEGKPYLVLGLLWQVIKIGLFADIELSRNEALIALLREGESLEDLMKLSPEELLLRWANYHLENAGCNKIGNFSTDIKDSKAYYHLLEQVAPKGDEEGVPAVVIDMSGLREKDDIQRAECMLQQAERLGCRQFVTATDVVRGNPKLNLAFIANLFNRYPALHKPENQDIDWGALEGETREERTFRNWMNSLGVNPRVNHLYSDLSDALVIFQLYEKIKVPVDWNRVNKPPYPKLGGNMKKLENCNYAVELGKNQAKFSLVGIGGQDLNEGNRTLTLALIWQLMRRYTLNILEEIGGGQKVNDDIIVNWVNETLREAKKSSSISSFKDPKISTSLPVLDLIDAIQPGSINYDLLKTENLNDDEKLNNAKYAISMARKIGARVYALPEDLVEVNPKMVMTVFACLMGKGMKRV
UniProt Q86WU2: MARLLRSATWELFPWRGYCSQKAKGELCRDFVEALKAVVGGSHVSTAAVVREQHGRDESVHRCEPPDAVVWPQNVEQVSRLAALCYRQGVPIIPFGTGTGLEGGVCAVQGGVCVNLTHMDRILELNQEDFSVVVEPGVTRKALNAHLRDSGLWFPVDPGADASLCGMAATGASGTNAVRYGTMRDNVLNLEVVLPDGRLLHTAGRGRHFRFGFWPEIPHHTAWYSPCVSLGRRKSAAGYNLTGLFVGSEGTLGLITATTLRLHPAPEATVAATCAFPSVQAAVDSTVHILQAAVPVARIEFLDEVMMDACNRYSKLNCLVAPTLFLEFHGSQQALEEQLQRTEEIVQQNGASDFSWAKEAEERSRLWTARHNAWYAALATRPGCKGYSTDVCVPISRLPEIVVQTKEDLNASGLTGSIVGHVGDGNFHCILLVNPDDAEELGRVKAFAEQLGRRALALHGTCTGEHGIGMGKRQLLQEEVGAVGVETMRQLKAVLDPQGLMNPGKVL
UniProt O95239: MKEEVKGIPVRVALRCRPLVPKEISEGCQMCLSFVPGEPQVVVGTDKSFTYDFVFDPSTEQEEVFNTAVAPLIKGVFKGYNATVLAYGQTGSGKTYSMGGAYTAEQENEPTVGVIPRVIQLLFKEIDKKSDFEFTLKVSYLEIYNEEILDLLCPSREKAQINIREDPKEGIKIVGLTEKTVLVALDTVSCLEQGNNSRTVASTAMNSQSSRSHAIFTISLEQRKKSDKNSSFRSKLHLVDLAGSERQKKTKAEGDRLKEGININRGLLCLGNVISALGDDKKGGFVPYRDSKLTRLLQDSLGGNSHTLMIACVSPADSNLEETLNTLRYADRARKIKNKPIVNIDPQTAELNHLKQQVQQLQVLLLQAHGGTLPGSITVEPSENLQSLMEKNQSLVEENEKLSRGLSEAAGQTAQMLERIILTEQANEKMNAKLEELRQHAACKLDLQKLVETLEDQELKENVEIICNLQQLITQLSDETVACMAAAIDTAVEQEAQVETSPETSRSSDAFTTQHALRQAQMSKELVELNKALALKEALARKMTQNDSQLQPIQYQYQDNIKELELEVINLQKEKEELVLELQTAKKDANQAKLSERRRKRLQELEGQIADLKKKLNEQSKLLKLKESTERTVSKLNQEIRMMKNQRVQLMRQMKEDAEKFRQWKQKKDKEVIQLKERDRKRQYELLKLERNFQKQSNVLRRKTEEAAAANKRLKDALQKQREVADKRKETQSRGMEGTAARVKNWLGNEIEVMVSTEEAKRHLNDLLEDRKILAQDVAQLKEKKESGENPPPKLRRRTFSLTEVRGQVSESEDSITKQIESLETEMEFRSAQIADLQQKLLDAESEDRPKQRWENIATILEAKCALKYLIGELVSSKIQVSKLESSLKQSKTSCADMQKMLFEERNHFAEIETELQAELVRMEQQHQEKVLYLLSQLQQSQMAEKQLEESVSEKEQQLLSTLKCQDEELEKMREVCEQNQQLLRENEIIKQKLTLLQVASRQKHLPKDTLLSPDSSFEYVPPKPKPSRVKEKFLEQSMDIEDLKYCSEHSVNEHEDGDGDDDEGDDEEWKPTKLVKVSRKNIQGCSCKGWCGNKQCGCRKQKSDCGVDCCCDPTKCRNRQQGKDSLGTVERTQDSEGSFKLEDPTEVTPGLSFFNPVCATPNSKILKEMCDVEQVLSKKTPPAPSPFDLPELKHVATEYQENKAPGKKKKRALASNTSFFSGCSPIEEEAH
UniProt Q96JN0: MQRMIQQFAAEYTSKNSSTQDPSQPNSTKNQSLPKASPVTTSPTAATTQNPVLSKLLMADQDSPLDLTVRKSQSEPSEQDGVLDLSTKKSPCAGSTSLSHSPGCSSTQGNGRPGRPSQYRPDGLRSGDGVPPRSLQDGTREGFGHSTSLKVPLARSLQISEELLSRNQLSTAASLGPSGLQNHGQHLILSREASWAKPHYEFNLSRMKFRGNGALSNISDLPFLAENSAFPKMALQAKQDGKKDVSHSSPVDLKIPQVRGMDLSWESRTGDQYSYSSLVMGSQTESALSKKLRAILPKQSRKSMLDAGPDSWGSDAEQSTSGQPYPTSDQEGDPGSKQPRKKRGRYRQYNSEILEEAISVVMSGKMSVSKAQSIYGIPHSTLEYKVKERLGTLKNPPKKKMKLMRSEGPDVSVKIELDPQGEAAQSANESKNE
UniProt Q8TBB5: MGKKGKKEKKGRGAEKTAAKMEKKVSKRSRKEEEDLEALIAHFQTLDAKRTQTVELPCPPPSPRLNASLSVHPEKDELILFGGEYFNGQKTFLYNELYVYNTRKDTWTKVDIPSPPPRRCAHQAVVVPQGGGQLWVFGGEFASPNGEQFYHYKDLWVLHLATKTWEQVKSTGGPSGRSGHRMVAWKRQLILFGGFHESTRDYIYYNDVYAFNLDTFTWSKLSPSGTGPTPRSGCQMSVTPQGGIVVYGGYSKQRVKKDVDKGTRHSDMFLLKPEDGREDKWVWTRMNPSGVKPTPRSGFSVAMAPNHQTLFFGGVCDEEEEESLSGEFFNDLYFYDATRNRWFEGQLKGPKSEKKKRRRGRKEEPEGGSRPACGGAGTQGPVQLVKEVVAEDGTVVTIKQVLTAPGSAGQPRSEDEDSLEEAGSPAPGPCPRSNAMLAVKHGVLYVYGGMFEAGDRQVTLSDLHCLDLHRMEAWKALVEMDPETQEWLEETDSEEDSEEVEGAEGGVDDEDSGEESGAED
UniProt Q86UP2: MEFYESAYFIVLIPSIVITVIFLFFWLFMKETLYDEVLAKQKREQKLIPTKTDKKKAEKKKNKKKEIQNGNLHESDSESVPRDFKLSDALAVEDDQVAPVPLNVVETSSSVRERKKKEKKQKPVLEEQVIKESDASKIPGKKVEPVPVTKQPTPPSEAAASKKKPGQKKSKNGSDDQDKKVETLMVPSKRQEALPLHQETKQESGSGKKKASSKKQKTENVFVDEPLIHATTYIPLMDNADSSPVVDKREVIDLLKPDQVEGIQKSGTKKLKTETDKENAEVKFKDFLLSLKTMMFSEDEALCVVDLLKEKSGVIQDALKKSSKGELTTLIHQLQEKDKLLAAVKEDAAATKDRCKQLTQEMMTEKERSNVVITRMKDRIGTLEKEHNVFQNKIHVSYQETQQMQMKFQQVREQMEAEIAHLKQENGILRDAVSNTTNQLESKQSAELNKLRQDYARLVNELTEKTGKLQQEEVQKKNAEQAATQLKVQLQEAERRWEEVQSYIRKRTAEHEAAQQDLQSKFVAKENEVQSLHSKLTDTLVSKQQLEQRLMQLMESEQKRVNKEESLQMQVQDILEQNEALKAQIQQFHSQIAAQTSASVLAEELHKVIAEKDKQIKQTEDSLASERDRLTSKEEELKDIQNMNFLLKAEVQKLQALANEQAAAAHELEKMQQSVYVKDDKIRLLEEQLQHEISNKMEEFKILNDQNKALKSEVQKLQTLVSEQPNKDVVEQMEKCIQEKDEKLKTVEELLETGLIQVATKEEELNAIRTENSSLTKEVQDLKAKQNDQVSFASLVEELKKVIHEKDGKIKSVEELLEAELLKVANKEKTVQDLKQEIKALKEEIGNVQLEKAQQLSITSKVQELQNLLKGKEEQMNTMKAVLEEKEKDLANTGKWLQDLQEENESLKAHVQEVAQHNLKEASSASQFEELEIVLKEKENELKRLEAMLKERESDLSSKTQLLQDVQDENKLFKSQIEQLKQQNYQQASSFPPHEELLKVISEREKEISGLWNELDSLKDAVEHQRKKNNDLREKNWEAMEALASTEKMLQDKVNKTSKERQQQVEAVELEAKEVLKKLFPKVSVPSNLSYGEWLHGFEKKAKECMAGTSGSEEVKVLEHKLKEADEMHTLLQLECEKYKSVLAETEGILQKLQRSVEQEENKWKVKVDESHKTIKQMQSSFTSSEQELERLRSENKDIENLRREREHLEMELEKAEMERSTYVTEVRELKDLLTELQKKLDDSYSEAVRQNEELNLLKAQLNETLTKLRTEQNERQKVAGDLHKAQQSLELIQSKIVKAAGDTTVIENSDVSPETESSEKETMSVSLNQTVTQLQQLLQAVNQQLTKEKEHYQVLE

Target | probe-labelled cysteine peptide fold change
LARS_Q9P2J5_1093_QGDNCDSIIR (UniProt Q9P2J5) | 0.102
LAGE3_Q14657_113_WKAEDCR (UniProt Q14657) | 0.0737
LDHA_P00338_293_DDVFLSVPCILGQNGISDLVK (UniProt P00338) | 0.529
KIF2A_O00139_406_CVEDVLK (UniProt O00139) | -0.0792
LCP1_P13796_42_AACLPLPGYR (UniProt P13796) | 0.00707
LDHD_Q86WU2_384_HNAWYAALATRPGCK (UniProt Q86WU2) | -0.394
LASP1_Q14847_29+32_ACFHCETCK (UniProt Q14847) | -0.283
KIF4A_O95239_965_CQDEELEK (UniProt O95239) | -0.0153
KMT2B_Q9UMN6_1749_IDSLGTLSDLSDCEGR (UniProt Q9UMN6) | 0.192
LCMT2_O60294_396_DCDSEWK (UniProt O60294) | 0.111
LAMTOR5_O43504_23+33_NPSIVGVLCTDSQGLNLGCR (UniProt O43504) | 0.264
LAMC1_P11047_804_RCELCDDGYFGDPLGR (UniProt P11047) | 0.59
LDHD_Q86WU2_462_ALALHGTCTGEHGIGMGKR (UniProt Q86WU2) | -0.533
KLC4_Q9NSK0_53_SEHQAVLQSLSQTIECLQQGGHEEGLVHEK (UniProt Q9NSK0) | -0.22
KIF23_Q02241_412_MIVCVNPK (UniProt Q02241) | -0.0803
KLHL22_Q53GT1_11_AEEQEFTQLCK (UniProt Q53GT1) | -0.131
LCP1_P13796_336_AECMLQQAER (UniProt P13796) | -0.006
LCOR_Q96JN0-3_1334_MECPDALAVESKPSR (UniProt Q96JN0) | -0.442

Target | probe-labelled cysteine peptide fold change
LCP1_P13796_336_DDIQRAECMLQQAER (UniProt P13796) | -0.778
KIF2A_O00139_420_LIDIGNSCR (UniProt O00139) | -0.0312
KIF4A_O95239_443_QHAACK (UniProt O95239) | -0.0284
LARS_Q9P2J5_70_CEFAVGYQR (UniProt Q9P2J5) | -0.616
LCOR_Q96JN0-3_531_ASCSALASEAVFTPK (UniProt Q96JN0) | -0.443
KLHDC4_Q8TBB5_465_QVTLSDLHCLDLHR (UniProt Q8TBB5) | -0.0653
L3MBTL3_Q96JM7_389_KNPSFICVATVTDMVDNR (UniProt Q96JM7) | -0.0604
LANCL2_Q9NS86_367_GYGICHGTAGNGYSFLSLYR (UniProt Q9NS86) | 0.0177
LARS_Q9P2J5_573_NFEATLGWLQEHACSR (UniProt Q9P2J5) | 0.121
LAS1L_Q9Y4W2_306_VECVLAELK (UniProt Q9Y4W2) | -0.525
LAMTOR2_Q9Y2Q5_92_VANLLLCMYAK (UniProt Q9Y2Q5) | 0.282
LAP3_P28838_462_SAGACTAAAFLK (UniProt P28838) | -0.0706
KLHL26_Q53HC5_38_CTFSAPSHSTSLLQGLATLR (UniProt Q53HC5) | -0.00127
LCOR_Q96JN0-3_1334_MECPDALAVESK (UniProt Q96JN0) | -0.0619
LACTB2_Q53H82_90_DHSGGIGDICK (UniProt Q53H82) | -0.0333
KMT2A_Q03164_1194_CQNLQWMPSK (UniProt Q03164) | -0.0648
KTN1_Q86UP2_303_TMMFSEDEALCVVDLLK (UniProt Q86UP2) | 0.119
KPNB1_Q14974_158_ESTLEAIGYICQDIDPEQLQDK (UniProt Q14974) | 0.121

Taken from above.
probe-labelled cysteine peptide fold change with KLHDC4_Q8TBB5_465_QVTLSDLHCLDLHR (UniProt Q8TBB5) reads -0.0653
probe-labelled cysteine peptide fold change with KTN1_Q86UP2_303_TMMFSEDEALCVVDLLK (UniProt Q86UP2) reads 0.119
